± gives the standard deviation. Only a part is listed here, and it is no random draw. The uncertainty is large for many entries.
tested on: MIWI (PIWIL1) piRISC loaded with piRNA #1 (30 nt); experiment: pre-steady-state target cleavage rate (min^-1); MIWI and MILI are mouse PIWI proteins and EfPiwi is from a freshwater sponge; tags in brackets are library labels; higher = faster piRNA-guided slicing of the target; settings: guide: piRNA #1 5'p-UGAGGUAGUAGGUUGUAUAGUAUCCAGAGG; auxiliary factor: 500 nM mouse GTSF1
In short: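 A transcribed, DNA-blocked target RNA library […] was incubated at 33 °C for 0–8 or 0–960 min with 1 nM active affinity-purified piRISC carrying one synthetic guide, in HEPES–potassium acetate buffer with or without 500 nM GTSF1 partner protein. Uncleaved targets were then sequenced and normalised to depth and to weakly complementary targets. Data from three trials were pooled, with k3 capped at 0.0001 min^-1, and a burst-and-steady-state fit yielded the pre-steady-state cleavage rate.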
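Note: 1 nM active piRISC with 0.1 nM target library at 33 °C single turnover.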

| Sequence | pre-steady-state target cleavage rate |
| --- | --- |
| GGAGACCUAUCUAAACAACGUACUACCUCA | 0.0018 ± 0.0046 |
| CCUCUGCAUUCUAUACAACCUACUACCUCA | 2.13 ± 0.13 |
| CCUCUGGAUACUAUACAACCUACAACCUCA | 1.56 ± 0.1 |
| GGAGACCUAUGAUAUGUUGCUACUACCUAA | 0.000327 ± 0.013 |
| CCUCUGGAUAUAUACAACCUACUACCUCA | 1.9 ± 0.12 |
| GGAGACCUAUCUAUACAACGAACUACCUCA | 0.000191 ± 0.014 |
| GGUCUGGAUACUAUUCAACCUACUACCACA | 0.506 ± 0.045 |
| GGUCUAGAUACUAUACAACCUACUACCUCA | 1.81 ± 0.11 |
| CCUCUGGAUACUAUACAACCACUACCUCA | 0.033 ± 0.0096 |
| GCUCUGAAUACUAUACAACCUACUACCUCA | 1.89 ± 0.12 |
| GGUCAGGAUACUAUACAUCCUACUACCUCA | 1.54 ± 0.079 |
| GGACUGGAUACUAUAGAACCUACUAGCUCA | 0.000656 ± 0.0067 |
| CCUCUGGAUACUUACAACCUACUACCUCA | 1.3 ± 0.12 |
| GGAGACCAUACUAUACAACCUACACCUCA | 0.00114 ± 0.0052 |
| CCUCUGGAUACUAUACAACCUACUACCUA | 1.52 ± 0.096 |
| GGUCUGGAUACUAUACAACCGUACUACCUCA | 0.00082 ± 0.0079 |
| GGAGACCUAUGUAUACUUGCUACUACCUCA | 0.000125 ± 0.016 |
| GGAGACCUAUGAACUACAACCUACUACCUCA | 0.000233 ± 0.016 |
| GGAGACCUAUGAUAUGUUCCUACACCUCA | 0.000405 ± 0.011 |
| GGACUGGAUACUAUACAACCUCACUACCUCA | 0.00198 ± 0.0058 |
| GGAGACCUAUGUAUACAACCUUCAACCUCA | 0.000812 ± 0.0036 |
| GGAGACCUAUGAUAUCAACCACUACCUCA | 0.000285 ± 0.0085 |
| GCUCUGAUACUAUACAACCUACUACCUCA | 1.9 ± 0.12 |
| GGAGACCAUACUAUUCAACCUACUACCACA | 1.05 ± 0.078 |

Random excerpt: 2 entries already listed

| Sequence | pre-steady-state target cleavage rate |
| --- | --- |
| GGAGACCUAUCUAUACAACGAACUACCUCA | 0.000191 ± 0.014 |
| GGUCAGGAUACUAUACAUCCUACUACCUCA | 1.54 ± 0.079 |
